In the supplement of paper PMC12889115:
Some of the results follow. Values are raw readings; no control value is given beside them.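 First-pass screen: polymyxin B was added at a level that permeabilizes the Salmonella outer membrane while sparing the inner membrane. DMSO wells, with and without polymyxin B, defined maximum growth. Because plates differed from one another, each plate's data were ranked separately and the compounds with the lowest OD600 were carried forward as hits.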

System: Salmonella enterica serovar Typhimurium SL1344
Assay: bacterial growth OD600 after 18 h with compound and polymyxin B; higher = more bacterial growth (less inhibition)
Settings: 50 µM, Mueller-Hinton broth

Row | Compound | bacterial growth OD600 (polymyxin B 1 µg/mL) | bacterial growth OD600 (polymyxin B 0.75 µg/mL)
1 | COc1ccc(CN2CC[C@@H](N3CCC(O)CC3)[C@H](O)C2)cc1C | 1.07 | –
2 | COCCCC1CCN(Cc2nc(-c3ccc(OC)cc3)no2)CC1 | 0.873 | –
3 | c1ccc(CN2CCC(NC3CCCN(c4nc5ccccc5s4)C3)CC2)nc1 (stereo not given) | 1.1 | –
4 | O=C(CCN1Cc2ccccc2OC(c2ccccc2F)C1)N1CC2CCC1C2 (stereo not given) | – | 0.675
5 | Fc1ccccc1-c1cnnc(N2CCCN(c3ncccn3)CC2)n1 | 1.05 | –
6 | CCO[C@H]1[C@H](NC(=O)c2cccnc2)c2ccccc2C12CCN(C(=O)CCCC(=O)OC)CC2 | – | 0.851
7 | Cc1csc(CN(C)C(=O)c2ccc3oc(Cc4ccc(Cl)cc4)nc3c2)n1 | – | 0.035
8 | Cn1ccnc1CN1CCN(C(=O)CCN2Cc3ccccc3OC(c3ccccc3F)C2)CC1 (stereo not given) | – | 0.739
9 | COc1cc2nc(CN3CCCCC3c3nccs3)nc(N3CCCCC3)c2cc1OC (stereo not given) | – | 0.716
10 | Fc1cccc(CN2CCCC3(CCN(Cc4cccnc4)C3)C2)c1F (stereo not given) | 0.668 | –
11 | O=C1CCCN1CCC1CCN(Cc2nc(-c3ccccc3)no2)CC1 | 0.943 | –
12 | Cc1n[nH]c(C)c1CNC(=O)C1CCCN(C2CCN(C(C)C)CC2)C1 (stereo not given) | – | 1.04
13 | Cc1cc(CNC(=O)c2c[nH]cn2)c2[nH]c(C)c(C)c2c1 | – | 0.952
14 | Cc1noc(C)c1CCCNC(=O)c1ccc(NC2CCCC2)nc1 | 1.13 | –
15 | CCN(Cc1nccn1C)C(=O)c1ccc(N2CCCCCC2)nc1 | – | 0.816
16 | COCC(=O)Nc1cc(C(=O)N2CCCN(C(=O)c3ccco3)CC2)c2c(c1)nc(C1CCC1)n2C | – | 0.821
17 | Cc1ccccc1C1(CC(=O)N2CCCC2c2nccs2)CC(=O)N(Cc2ccncc2)C1=O (stereo not given) | – | 0.825
18 | COC(=O)[C@@H](C)NC(=O)c1coc(COc2cccc(C(F)(F)F)c2)n1 | – | 0.817
19 | Cc1cccc(C(=O)N2CCC(C(Cc3ccccc3C)N(C)C(=O)Cn3cccn3)CC2)c1 (stereo not given) | – | 0.817
20 | Cc1n[nH]c(C)c1CN(C)C(=O)c1cc(COc2cccc(F)c2)[nH]n1 | – | 0.994

Structural class: the entries above with an NH in an aromatic ring.
Row | Compound | bacterial growth OD600 (polymyxin B 1 µg/mL) | bacterial growth OD600 (polymyxin B 0.75 µg/mL)
12 | Cc1n[nH]c(C)c1CNC(=O)C1CCCN(C2CCN(C(C)C)CC2)C1 (stereo not given) | – | 1.04
13 | Cc1cc(CNC(=O)c2c[nH]cn2)c2[nH]c(C)c(C)c2c1 | – | 0.952
20 | Cc1n[nH]c(C)c1CN(C)C(=O)c1cc(COc2cccc(F)c2)[nH]n1 | – | 0.994
